From ChEMBL document CHEMBL3988442, “University of Dundee, Small-Polar-MMV Screening Library” (2021).

The filed quantity is “Percent Effect” (%).
How 0% and 100% were set is not recorded. Most values in the screen are low, and negative values occur.
This is an unselected part of the compounds tested.
Two or more numbers in one place are separate tests of the same structure; such repeats can differ widely.

Mtb glucose medium: 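Phenotypic screen: M. tuberculosis growth, glucose 7H9 medium, 3 days; the read-out is not stated. Concentration: 50 µM. The record gives no direction; compounds that gave an IC50 in retests scored well above the rest, so higher reads as more growth inhibition. About 69,000 compounds were tested under these conditions; 1.1% (about 760) showed 50% or more at least once.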
Mtb cholesterol medium: 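Whole-cell growth test on Mycobacterium tuberculosis, read after 4 days in a medium based on cholesterol and the lipid DPPC; the read-out is not stated. Tested at 50 µM. The record gives no direction; compounds that gave an IC50 in retests scored well above the rest, so higher reads as more growth inhibition. Of about 69,000 compounds tested this way, about 370 (0.54%) reached 50% or more in at least one test.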

* CC(C)c1nnc(NC(=O)CN2C(=O)c3ccccc3NC2C(C)C)s1 (stereo not shown) | Mtb glucose medium: 3.97%; Mtb cholesterol medium: 6.487%
* CC(C)c1nnc(NC(=O)N(C)Cc2ccncc2)s1 | Mtb glucose medium: 8.008%; Mtb cholesterol medium: -8.023% & -5.239%
* COc1c(C)cnc(CN2CCC(N(C)C(=O)C(C)OC)CC2)c1C (stereo not shown) | Mtb glucose medium: -27.49%; Mtb cholesterol medium: -17.03%
* Cc1cc(CN2CCC(C3CCN(CCc4ccccc4)C3)CC2)[nH]n1 (stereo not shown) | Mtb glucose medium: 16.93% & 7.075%; Mtb cholesterol medium: 21.71%
* Cl.[H][C@@]12CN(C3CCCC3)CC[C@]1([H])N(C(=O)C1CCCC1)C[C@H]2c1ccsc1 | Mtb glucose medium: -14.93%; Mtb cholesterol medium: 1.689%
* CC(C)CCN(C)Cc1ccccc1-c1nc(C(C)C)cc(=O)[nH]1 | Mtb glucose medium: -13.71%; Mtb cholesterol medium: -13.95%
* O=C(CC1CC1)N1CCc2ncc(CN3CCOCC3)n2CC1.O=C(O)C(F)(F)F | Mtb glucose medium: -21.05%; Mtb cholesterol medium: -8.651% & 10.93%
* COCCC(=O)NCc1ccc(-c2ccccc2C(=O)O)nc1 | Mtb glucose medium: -7.219%; Mtb cholesterol medium: -3.663% & 11.34%
* CN1CCN([C@@H]2CCN(C3CCOC3)[C@H]2Cc2cnn(C)c2)CC1.O=C(O)C(F)(F)F.O=C(O)C(F)(F)F.O=C(O)C(F)(F)F (stereo partly shown) | Mtb glucose medium: 30.27%; Mtb cholesterol medium: -14.42%
* CC(=O)N(C)C(c1cccnc1)c1ccc(F)c(F)c1 (stereo not shown) | Mtb glucose medium: -15.26% & -5.16%; Mtb cholesterol medium: -8.793%
* CC[C@H]1COCCN1C(=O)c1ccc(OC)c(N2CCOCC2)c1 | Mtb glucose medium: -23.2%; Mtb cholesterol medium: -7.898%
* CN1CCCC(N2CCN(c3nc4ccccn4c3C#N)CC2)C1 (stereo not shown) | Mtb glucose medium: -8.021% & -25.13%; Mtb cholesterol medium: -18.57% & 1.18%
* CCOc1ccc(Cl)c(C(=O)N2CCN(c3ncccn3)CC2)n1 | Mtb glucose medium: -1.764%; Mtb cholesterol medium: 0.4199%
* Cc1nc(-c2ccc(F)cc2)nc2c1CCN(C(=O)CN(C)C)CC2 | Mtb glucose medium: 28.75% & 29.78%; Mtb cholesterol medium: 28.58%
* CCCc1nc(N2CCC(CCO)CC2)c2cnn(C)c2n1 | Mtb glucose medium: 15.86%; Mtb cholesterol medium: -16.12%
* CC(C)(O)c1cc(CC2(NCc3ccccc3Cl)COC2)no1 | Mtb glucose medium: 0.4328% & -4.992%; Mtb cholesterol medium: 3.122%
* O=C1CN(CCCNC(=O)Nc2cccc(Cl)c2F)CCN1 | Mtb glucose medium: 8.293%; Mtb cholesterol medium: -2.012% & 3.288%
* CCCNC(=O)NC(=O)CNC(C)(C)c1ccc2c(c1)OCCO2 | Mtb glucose medium: 71.97% & 78.37%; Mtb cholesterol medium: 69.64%
* CCCS(=O)(=O)N1CCCC(CCC(=O)N(C)CCc2ccccn2)C1 (stereo not shown) | Mtb glucose medium: 14.4%; Mtb cholesterol medium: 7.85%
* CC(C)c1nccn1CCn1cnc2ccsc2c1=O | Mtb glucose medium: 1.377%; Mtb cholesterol medium: -6.123%
* Cc1ccc(CN(CCCn2ccnc2)Cc2c(F)cccc2F)s1.O=C(O)CC(O)(CC(=O)O)C(=O)O | Mtb glucose medium: 43.56%; Mtb cholesterol medium: 13.38%
* Cc1nn(CC(C)C)c(N(C)C)c1CNCCC(=O)NC(C)C | Mtb glucose medium: -29.53%; Mtb cholesterol medium: -23.27%
* O=C(c1ccoc1)N1CCCCC1c1nc[nH]n1 (stereo not shown) | Mtb glucose medium: 10.55%; Mtb cholesterol medium: 1.595%
* Fc1ccc(CN2CCCC2Cn2cccn2)c2ncccc12 (stereo not shown) | Mtb glucose medium: 29.1%; Mtb cholesterol medium: -5.875%
* O=C(O)C(F)(F)F.O=C(c1cccc(Cl)c1)N1CCCC2(CCCNC2)C1 (stereo not shown) | Mtb glucose medium: -27.77%; Mtb cholesterol medium: 4.335%
* CCOCC1CN(S(=O)(=O)CC)Cc2cnn(CC3CC3)c21.O=C(O)C(F)(F)F (stereo not shown) | Mtb glucose medium: 11.78%; Mtb cholesterol medium: 0.3832%
* NC(=O)Cn1c(CO)cnc1SCC(=O)NCc1ccccc1Cl | Mtb glucose medium: -6.052% & -23.24%; Mtb cholesterol medium: -36.62%